PubChem BioAssay AID1053208, Peter MacCallum Cancer Centre, 2014
The deposit covers about 17,000 reagents; below is a part drawn at random. 788 of them (4.7%) count as active. 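Calls rest on z-score classes alone; an extra cut-off of viability at most 70% of control was not applied to them.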 Unmarked entries are inactive. Further read-outs or replicates are left out here.

Aim: 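Find knock-downs that sensitise mouse osteosarcoma cells to doxorubicin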 (primary screen)
Cell system: mouse osteosarcoma cells, early-passage culture from an engineered mouse model of fibroblastic bone tumour
Reagent: siRNA pool against mouse genes, 40 nM
Duration: about 120 h (48 h before drug, then 72 h with drug)
Treatment: doxorubicin 100 nM for 72 h, roughly 30-40% inhibitory dose
Measured: 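Viability read as ATP luminescence after 72 h of 100 nM doxorubicin or none, duplicate wells averaged, scaled to non-targeting siRNA, then expressed as robust z-scores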
Reading the numbers: viability z-score with doxorubicin: higher = more viable cells under doxorubicin; viability z-score without drug: higher = more viable cells with knock-down alone
Call rule: 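Called active if knock-down leaves viability unchanged without drug (z within -2 to 2) but lowers it with doxorubicin (z at or under -2)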

Klra6 (killer cell lectin-like receptor, subfamily A, member 6) | combined z-score class: no change with or without drug; viability z-score with doxorubicin: 1.01; viability z-score without drug: -0.17
Or5d40 (olfactory receptor family 5 subfamily D member 40) | combined z-score class: no change with or without drug; viability z-score with doxorubicin: -0.22; viability z-score without drug: -0.51
Klhdc10 (kelch domain containing 10) | combined z-score class: low cell count with doxorubicin only (active); viability z-score with doxorubicin: -2.02; viability z-score without drug: -0.51
Pnpla7 (patatin-like phospholipase domain containing 7) | combined z-score class: no change with or without drug; viability z-score with doxorubicin: 0.9; viability z-score without drug: -0.17
Vat1 (vesicle amine transport 1) | combined z-score class: no change with or without drug; viability z-score with doxorubicin: 1.01; viability z-score without drug: 0.51
Art4 (ADP-ribosyltransferase 4) | combined z-score class: high cell count with doxorubicin only; viability z-score with doxorubicin: 2.36; viability z-score without drug: 1.52
Kctd10 (potassium channel tetramerisation domain containing 10) | combined z-score class: no change with or without drug; viability z-score with doxorubicin: -1.91; viability z-score without drug: -0.17
Plekha4 (pleckstrin homology domain containing A4) | combined z-score class: no change with or without drug; viability z-score with doxorubicin: -1.01; viability z-score without drug: 1.52
Crb1 | combined z-score class: no change with or without drug; viability z-score with doxorubicin: -0.22; viability z-score without drug: -0.17
Pkd1l3 (polycystic kidney disease 1 like 3) | combined z-score class: no change with or without drug; viability z-score with doxorubicin: 1.57; viability z-score without drug: -0.17
Vmn1r236 (vomeronasal 1 receptor 236) | combined z-score class: no change with or without drug; viability z-score with doxorubicin: 1.01; viability z-score without drug: -0.17
Taar9 (trace amine-associated receptor 9) | combined z-score class: no change with or without drug; viability z-score with doxorubicin: -1.35; viability z-score without drug: -0.51
Or51aa5 (olfactory receptor family 51 subfamily AA member 5) | combined z-score class: no change with or without drug; viability z-score with doxorubicin: 0.22; viability z-score without drug: -0.84
Or4c108 (olfactory receptor family 4 subfamily C member 108) | combined z-score class: no change with or without drug; viability z-score with doxorubicin: -0.67; viability z-score without drug: 0.51
Serpinb12 | combined z-score class: no change with or without drug; viability z-score with doxorubicin: -0.67; viability z-score without drug: -1.69
Or4d2b (olfactory receptor family 4 subfamily D member 2B) | combined z-score class: no change with or without drug; viability z-score with doxorubicin: -0.67; viability z-score without drug: -0.51
Hoxd13 (homeobox D13) | combined z-score class: no change with or without drug; viability z-score with doxorubicin: -0.9; viability z-score without drug: -0.17
C730034F03Rik (RIKEN cDNA C730034F03 gene) | combined z-score class: no change with or without drug; viability z-score with doxorubicin: -0.67; viability z-score without drug: 0.84
Cep135 (centrosomal protein 135) | combined z-score class: no change with or without drug; viability z-score with doxorubicin: 0.56; viability z-score without drug: 1.85

Ordered by “viability z-score without drug” (descending): 2 of the entries above
Or4d2b (olfactory receptor family 4 subfamily D member 2B) | combined z-score class: no change with or without drug; viability z-score with doxorubicin: -0.67; viability z-score without drug: -0.51
Serpinb12 | combined z-score class: no change with or without drug; viability z-score with doxorubicin: -0.67; viability z-score without drug: -1.69
